# Measured values published in PubChem BioAssay AID445 (National Center for Advancing Translational Sciences (NCATS), 2006).
# This is one part of the list. Shown are side measurements of this screen, not its main read-out; they come without a call. The list favours compounds with an active or inconclusive main result. The note in brackets gives the kind of curve behind each potency; many fits are weak.
# Assay: IkB Signaling
# Details: ABC-DLBCL IkBa-CBG/CBR dual luciferase ratio (green luciferase fused to IkBa over red control in OCI-Ly3 lymphoma cells), 4 h
# In short: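 Luminescence ratio of IκBα-fused green versus native red beetle luciferase in OCI-Ly3 cells, 4 h post-doxycycline with compound; red signal alone, scaled from basal (0%) to zero light (-100%), flagged nonspecific or cytotoxic effects.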
# [1] = measured here: control luc red channel unless noted
# [2] = measured here: IkB-luc green channel
# [3] = measured here: control luc red channel
compound,measurement,setting,value
CCN(c1ccc(C)cc1)S(=O)(=O)c1nnc(NC(=O)c2cccs2)s1,AC50,[1],"1.26 µM [falling, partial curve]"
Cc1ccc(-c2ccc(CCC(=O)O)n2-c2ccc(C(C)C)cc2)cc1,AC50,[1],"15.8 µM [falling, partial curve]"
COc1ccccc1CNC(=O)Cn1ncc2c(C)n(Cc3ccccc3Cl)c(C)c2c1=O,AC50,[1],"12.6 µM [falling, partial curve]"
COC(=O)c1ccc(OCC(=O)c2ccc(O)cc2O)cc1,AC50,[1],"25.1 µM [falling, partial curve]"
Cc1nnc(SCc2ccccc2)n1N,AC50,[1],"50.1 nM [rising, full curve, poor fit] [measured here: IkB-luc green channel]"
COc1ccccc1NC(=O)Cn1cnc2c(cnn2-c2ccc(C)c(C)c2)c1=O,AC50,[1],"20 µM [falling, partial curve]"
CCN(c1cc(C)cc(C)c1)S(=O)(=O)c1nnc(NC(=O)c2cccc(F)c2)s1,AC50,[1],"12.6 µM [falling, partial curve]"
CCc1ccc2c(c1)C(NC(C)=O)C(=O)N2CC (stereo not given),AC50,[1],"2 µM [rising, partial curve] [measured here: IkB-luc green channel]"
CCCC1=Nc2cc(C(=O)NCCc3ccc(OCC)cc3)ccc2Sc2ccccc21,AC50,[1],"0.794 µM [falling, full curve]"
COc1cc2c(-c3ccccc3O)nc3c(c(C)nn3-c3ccccc3)c2cc1OC,AC50,[1],"39.8 µM [falling, single point]"
Cc1nc2sc(C(c3cccs3)N3CC(C)CC(C)C3)c(O)n2n1 (stereo not given),AC50,[2],"31.6 µM [rising, partial curve]"
same,AC50,[3],"10 µM [falling, partial curve]"
CCN(CCCNC(=O)c1ccc(Sc2ccc(F)cc2)c(NC(C)=O)c1)c1ccccc1,AC50,[1],"12.6 µM [falling, single point]"
COc1ccc(CNC(=O)Cn2c(=O)nc(-c3ccccc3F)c3cc(Cl)ccc32)cc1,AC50,[1],"10 µM [falling, partial curve]"
CCN(CC)C(=O)CSc1nc2cc3c(cc2c(=O)n1CCCCCC(=O)NCc1ccc(OC)cc1)OCO3,AC50,[1],"39.8 µM [falling, single point]"
N#Cc1c(NC(=O)Cn2c(=O)oc3ccccc32)oc(-c2ccccc2)c1-c1ccccc1,AC50,[1],"5.01 µM [falling, partial curve]"
Cc1ccc(-c2nc3c(C)cccn3c2Nc2ccccc2C)s1,AC50,[1],"25.1 µM [falling, partial curve]"
Cc1ccc(F)cc1NC(=O)Cn1c(=O)nc(-c2ccccc2F)c2cc(Cl)ccc21,AC50,[1],"3.98 µM [falling, full curve]"
O=c1oc2ccccc2cc1-c1cn2cccnc2n1,AC50,[1],"20 µM [falling, partial curve]"
CC1CCCN(c2nc3c(S(=O)(=O)c4ccc(C(C)C)cc4)nnn3c3ccsc23)C1 (stereo not given),AC50,[1],"10 µM [falling, partial curve]"
CCCCCn1c(=O)[nH]c2cc(C(=O)N3CCN(c4cc(Cl)ccc4C)CC3)ccc2c1=O,AC50,[1],"6.31 µM [falling, partial curve]"
Cc1ccc(C(=O)OCc2cc(=O)n3nc(-c4cccs4)sc3n2)cc1,AC50,[1],"1.58 µM [falling, full curve, poor fit]"
COc1ccccc1NC(=O)Cn1c(=O)n(Cc2cccs2)c(=O)c2cccnc21,AC50,[1],"15.8 µM [falling, partial curve]"
CCOC(=O)c1ccc(Nc2nc3nonc3nc2Nc2cccc(C)c2C)cc1,AC50,[1],"1.58 µM [falling, full curve]"
COCCn1nnnc1C(c1cc2ccc(C)cc2[nH]c1=O)N(Cc1ccco1)Cc1cccs1 (stereo not given),AC50,[1],"31.6 µM [falling, single point]"
Cc1cccc(NC(=O)Cn2cc(C(=O)C3CCCCC3)c3ccccc32)c1C,AC50,[1],"7.94 µM [falling, full curve]"
CCOc1ccc(C(=O)c2cn(CC(=O)Nc3ccc4c(c3)OCCO4)c3ccc(OC)cc3c2=O)cc1,AC50,[1],"10 µM [falling, partial curve]"
O=C(NCc1ccccc1)c1cc2sccc2n1Cc1ccc(F)cc1,AC50,[1],"5.01 µM [falling, full curve, poor fit]"
CC(=O)c1ccc(NC(=O)c2ccc3c(c2)nnn3C2CCCC2)cc1,AC50,[1],"39.8 µM [rising, single point]"
Cc1ccc(C)c(NC(=O)c2nc(S(C)(=O)=O)ncc2N(Cc2ccc(C(C)(C)C)cc2)Cc2ccco2)c1,AC50,[1],"31.6 µM [falling, single point]"
COc1cc(C2C(C#N)=C(N)Oc3cc(N(C)C)ccc32)cc2c1OCO2 (stereo not given),AC50,[2],"0.316 µM [rising, full curve, poor fit]"
same,AC50,[3],"0.0501 µM [rising, full curve]"
Cn1c(=O)c(C(=O)CN2CCCc3ccccc32)c(N)n(Cc2ccccc2)c1=O,AC50,[1],"39.8 µM [falling, single point]"
COC(=O)C1=C(C)N(CCC2=CCCCC2)C(=O)C1,AC50,[2],"39.8 µM [rising, single point]"
same,AC50,[3],"31.6 µM [falling, single point]"
O=C(Oc1ccc2c(c1)OCO2)c1cc2c(s1)CCC2,AC50,[1],"31.6 µM [rising, single point]"
O=C(NC1CCCCC1)/C(=C/c1ccc(Cl)cc1)NC(=O)c1ccccc1,AC50,[1],"31.6 µM [falling, partial curve]"
N#Cc1c(NC(=O)CSc2ncnc3sccc23)oc(-c2ccco2)c1-c1ccco1,AC50,[1],"15.8 µM [falling, partial curve]"
COC(=O)Cc1nc2ccccc2[nH]1,AC50,[1],"10 µM [falling, partial curve]"
Cc1nn(-c2ccccc2)c2sc(C(=O)N3CCCCC3)cc12,AC50,[1],"20 µM [falling, single point]"
O=C(O)CCc1ccc(-c2ccc(Cl)cc2)n1-c1cccc(C(F)(F)F)c1,AC50,[1],"31.6 µM [falling, partial curve]"
Cc1ccc2[nH]c3c(=O)n(CC(=O)N(C)Cc4ccccc4)ncc3c2c1,AC50,[1],"20 µM [falling, single point]"
CCOC(=O)c1cnc(NCc2ccc(Cl)cc2)c2ccccc12,AC50,[1],"39.8 µM [falling, partial curve]"
Cn1c(CN2CCCCC2)nc2cc(NC(=O)c3ccc(Cl)cc3)ccc21,AC50,[1],"1.58 µM [falling, full curve]"
Cc1ccc(-n2c(C)cc(C3N=C(N)Nc4nc5ccccc5n43)c2C)c(C)c1 (stereo not given),AC50,[2],"39.8 µM [falling, single point]"
same,AC50,[3],"31.6 µM [falling, single point]"
c1cc2c(cc1-c1cnc3n1CCC3)OCCO2,AC50,[1],"15.8 µM [falling, partial curve]"
Nc1cc(N)c(OCC(F)(F)F)cc1OCC(F)(F)F,AC50,[1],"3.98 µM [rising, partial curve] [measured here: IkB-luc green channel]"
Cc1nn(CC(=O)NCc2ccccc2Br)c(=O)c2cc3occc3n12,AC50,[1],"0.0126 µM [rising, full curve, poor fit]"
CNc1oc(/C=C/c2cc(OC)c(OC)c(OC)c2)nc1C#N,AC50,[1],"25.1 µM [falling, single point]"
CCOc1ccccc1NC(=O)CSc1nccn1Cc1ccc(F)cc1,AC50,[1],"15.8 µM [rising, partial curve]"
Cc1ccc(C(=O)Nc2ccc(F)cc2)cc1S(=O)(=O)N1CCOCC1,AC50,[1],"39.8 µM [falling, partial curve]"
Cc1ccccc1CNC(=O)c1ccc2c(c1)N(Cc1ccccc1)CCS2,AC50,[1],"15.8 µM [falling, partial curve]"
Cc1ccc2[nH]c3c(NCc4ccco4)ncnc3c2c1,AC50,[1],"10 µM [falling, partial curve]"
O=C(CCCn1c(=S)[nH]c2cc3c(cc2c1=O)OCO3)N1CCc2ccccc2C1,AC50,[1],"20 µM [falling, partial curve]"
O=C(CCCn1c(=O)c2cccn2c2cccnc21)Nc1ccccc1Br,AC50,[1],"1.26 µM [rising, full curve]"
CCOC(=O)c1c(NC(=O)/C=C/c2ccc(OCC)cc2)sc2c1CCC2,AC50,[1],"20 µM [rising, partial curve]"
Cc1ccc(CNC(=O)Cn2cc(C(=O)c3ccc(Cl)cc3)c(=O)c3ccc(C)nc32)cc1,AC50,[1],"39.8 µM [falling, partial curve]"
CC(=O)c1cccc(NC(=O)c2cc(-c3ccc4c(c3)OCCO4)on2)c1,AC50,[1],"3.98 µM [falling, full curve]"
COC(=O)c1ccccc1NC(=O)CCCS(=O)(=O)c1nc(-c2ccccc2OC)cc(C(F)(F)F)n1,AC50,[1],"3.16 µM [falling, full curve]"
COC(=O)c1ccc(NC(=O)c2c(NCc3ccc(OC)c(OC)c3)sc3c2CCCC3)cc1,AC50,[1],"5.01 µM [falling, full curve]"
CCOC(=O)c1cccc(NC(=O)C2CCN(S(=O)(=O)c3cccs3)CC2)c1,AC50,[1],"39.8 µM [falling, single point]"
Cc1cc(NC(=O)CSc2ncc(C(=O)Nc3ccccc3)c(=O)n2C)no1,AC50,[1],"31.6 µM [rising, single point] [measured here: IkB-luc green channel]"
Cc1cc(C(=O)CSc2nnc(C3COc4ccccc4O3)n2C)c(C)n1-c1ccc(F)cc1 (stereo not given),AC50,[1],"25.1 µM [falling, partial curve]"
COc1ccccc1CNC(=O)C(Cc1ccccc1)NS(=O)(=O)c1ccc2c(c1)CCN2C(C)=O (stereo not given),AC50,[1],"12.6 µM [falling, single point]"

# A second format for part of the listing above.
compound | measurement | setting | value
CCc1ccc2c(c1)C(NC(C)=O)C(=O)N2CC (stereo not given) | AC50 | [1] | 2 µM [rising, partial curve] [measured here: IkB-luc green channel]
CCOC(=O)c1c(NC(=O)/C=C/c2ccc(OCC)cc2)sc2c1CCC2 | AC50 | [1] | 20 µM [rising, partial curve]
COc1ccccc1CNC(=O)C(Cc1ccccc1)NS(=O)(=O)c1ccc2c(c1)CCN2C(C)=O (stereo not given) | AC50 | [1] | 12.6 µM [falling, single point]
